# Assay results published in PubChem BioAssay AID2551 (National Center for Advancing Translational Sciences (NCATS), 2010).
# Protein sequences, listed by entry. Tags and fused reporters are not part of them. Lines headed by an entry give the natural chain unless they say otherwise; changes in a name come on top.
# UniProt P51450: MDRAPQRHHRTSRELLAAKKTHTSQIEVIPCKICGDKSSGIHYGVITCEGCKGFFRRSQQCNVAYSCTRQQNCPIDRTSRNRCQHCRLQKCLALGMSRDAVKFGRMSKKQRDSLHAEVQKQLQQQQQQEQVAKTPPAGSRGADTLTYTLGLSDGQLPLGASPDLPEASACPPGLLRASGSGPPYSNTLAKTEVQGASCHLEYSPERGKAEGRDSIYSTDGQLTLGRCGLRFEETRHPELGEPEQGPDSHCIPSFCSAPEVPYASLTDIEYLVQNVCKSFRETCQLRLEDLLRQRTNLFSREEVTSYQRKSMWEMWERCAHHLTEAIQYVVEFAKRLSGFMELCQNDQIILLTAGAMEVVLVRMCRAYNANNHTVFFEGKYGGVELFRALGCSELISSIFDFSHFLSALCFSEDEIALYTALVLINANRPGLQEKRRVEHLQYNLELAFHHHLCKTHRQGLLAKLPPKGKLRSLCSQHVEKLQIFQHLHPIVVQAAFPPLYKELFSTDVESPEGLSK
# About 17,000 (5.5%) of roughly 310,000 compounds were called active. Inconclusive results, whose numbers are uncertain, are shown with a selection of clear calls. Calls come from the whole dose curve; as a rule, active = well fitted inhibition curve with a large enough effect; inconclusive = small, poorly fitted or top-dose-only effect, or effect the other way; inactive = no such curve, though single readings can be large or run the other way. Where the call is inconclusive, the potency comes from a doubtful curve fit.
# Molecular target: Nuclear receptor ROR-gamma (Mus musculus) (UniProt P51450)
# Assay: qHTS for inhibitors of ROR gamma transcriptional activity; note: nearly all actives have a fitted effect of over 60% in size
# Conditions: Drosophila S2 Gal4-RORgamma UAS-luciferase reporter, 20 h; activity change, negative = inhibition: at 53.6 µM (top of the series)
# How it was run: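 Stable Schneider cell line, Gal4 DNA-binding domain fused to ROR gamma, UAS-luciferase. Cmpd 1 hr RT → CuSO4 700 uM final → 20 hr RT → luciferase reagent 10 min → luminescence.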
# % is set by controls: 0 for no effect and ±100 for the full control effect; potency is the fitted concentration of half-maximal effect.
Compound,Potency,"activity change, negative = inhibition"
O=C(CN1CCN(c2ccc(O)cc2)CC1)Nc1ccc(SC(F)F)cc1,"inconclusive: 11.2 µM [activator, partial curve]",
CC1(C)Nc2ccccc2C(=O)N1c1ccccc1,inactive,
COc1ccccc1NC(=O)N1CCC(NC(=O)C2CCCCC2)CC1,inactive,
CCOC(=O)N1CCN(S(=O)(=O)c2ccc3c(c2)CCN3C(=O)C2CCC2)CC1,inactive,
COC(=O)CSc1nc2nc(C)c(Br)cc2[nH]1,"inconclusive: 1.26 µM [inhibitor, partial curve, poor fit]",
Cc1ccnc(NC(=O)c2ccc(Br)s2)c1,"inconclusive: 14.1 µM [inhibitor, single point]",
O=C(/C=C/c1cccc(F)c1)N1CCc2ccccc21,"inconclusive: 12.6 µM [inhibitor, single point]",
Cc1cccc(N2CCN(C3=NC(=O)C(=C4CCCCC4)S3)CC2)c1,,inactive: -2.29% [at 10 µM]
COC(=O)c1ccc(C(NC(=O)OCc2ccccc2)/C(I)=C/[C@@H](C)C(=O)NCc2ccc(OC)c(O)c2)cc1 (stereo not given in full),"inconclusive: 11.2 µM [activator, partial curve]",
c1cncc(CSc2ccc(-c3ccc4c(c3)OCO4)nn2)c1,"inconclusive: 17.8 µM [activator, partial curve]",
CCN1CCN(C(=O)C2CCN(S(=O)(=O)c3ccc(SC)cc3)CC2)CC1,"inconclusive: 35.5 µM [inhibitor, single point]",
O=C(/C=C/c1ccc([N+](=O)[O-])cc1)NCCc1ccc(F)cc1,"inconclusive: 35.5 µM [activator, single point]",
O=S(=O)(Nc1cccc(-c2nc3cccnc3s2)c1)c1ccc2c(c1)CCCC2,"inconclusive: 35.5 µM [activator, single point]",
COc1ccc2c(c1)[nH]c1c(N3CCN(Cc4ccc5c(c4)OCO5)CC3)ncnc12,"inconclusive: 14.1 µM [inhibitor, single point]",
Cc1ccc(NC(=O)c2ccccc2Br)cc1S(=O)(=O)N(C)C,inactive,
CCc1ccc(NC(=O)CSc2nnc(Cc3cccn3C)n2-c2ccc(OC)cc2)cc1,"inconclusive: 12.6 µM [activator, partial curve]",
C=CCNC(=O)c1ccc(CN(c2ccc(OCC)cc2)S(=O)(=O)c2ccc(C)cc2)cc1,"inconclusive: 14.1 µM [activator, partial curve, poor fit]",
COc1ccc(S(=O)(=O)N2CCOC2CNC(=O)C(=O)NCCc2c[nH]c3ccccc23)cc1C (stereo not given),"inconclusive: 31.6 µM [activator, single point]",
O=C(CCCc1c[nH]c2ccccc12)NCCc1c[nH]c2ccccc12,"inconclusive: 15.8 µM [activator, single point]",
C/C(=N\NC(=O)c1ccc(CN2CCOCC2)cc1)c1ccc(NC(=O)c2ccccc2)cc1,"inconclusive: 6.31 µM [inhibitor, single point]",
CC(C)c1ccc(NC(=S)N2CCN(Cc3ccccc3)CC2)cc1,active: 7.94 µM,
O=C(Nc1cccc(C(=O)O)c1)/C(=C\c1ccco1)NC(=O)c1ccccc1,"inconclusive: 15.8 µM [inhibitor, single point]",
CCC(C)(C)C(=O)Nc1nnc(CCc2ccccc2)s1,"inconclusive: 35.5 µM [inhibitor, single point]",

# Three entries from above in another layout:
Compound	Potency	activity change, negative = inhibition
O=C(/C=C/c1ccc([N+](=O)[O-])cc1)NCCc1ccc(F)cc1	inconclusive: 35.5 µM [activator, single point]	
O=S(=O)(Nc1cccc(-c2nc3cccnc3s2)c1)c1ccc2c(c1)CCCC2	inconclusive: 35.5 µM [activator, single point]	
COc1ccc2c(c1)[nH]c1c(N3CCN(Cc4ccc5c(c4)OCO5)CC3)ncnc12	inconclusive: 14.1 µM [inhibitor, single point]	

# Going on with the list:

Compound,Potency,"activity change, negative = inhibition"
O=C(NC(NC(=S)Nc1c(Cl)cccc1Cl)C(Cl)(Cl)Cl)c1cccc([N+](=O)[O-])c1 (stereo not given),"inconclusive: 15.8 µM [inhibitor, single point]",
OC(C#Cc1ccccn1)c1cccs1 (stereo not given),active: 10 µM,
CCn1c(=S)[nH]c2c(c1=O)C(C)(C)Cc1ccccc1-2,active: 1 µM,
Cc1cccc(C)c1NC(=S)N/N=C1\CC2CC=CC12 (stereo not given),"inconclusive: 15.8 µM [inhibitor, partial curve, poor fit]",
O=C(CSc1cn[nH]n1)Nc1ccccc1C(=O)O,inactive,
Nc1ncc(-n2cncn2)c(-c2ccc(Cl)cc2)n1,inactive,
O=[N+]([O-])c1ccc(O)c(C(C#Cc2ccccc2)N2CCOCC2)c1 (stereo not given),inactive,
O=S(=O)(NC1CCCCC1Nc1ccc(Cl)cc1)c1ccccc1 (stereo not given),"inconclusive: 15.8 µM [activator, partial curve]",
CCOc1cc(/C=C/c2cc(C(=O)O)c3ccccc3n2)ccc1OC,active: 12.6 µM,
NS(=O)(=O)c1ccc(NC(=O)c2cccc(Cl)c2)cc1,"inconclusive: 8.91 µM [activator, partial curve]",
O=C(CC1SC(=O)NC1=O)Oc1ccc(/C=N/NC(=O)c2ccccc2O)cc1 (stereo not given),"inconclusive: 35.5 µM [inhibitor, single point]",
Cc1cc(C)nc(-n2nc(C)cc2NC(=O)C(C)C)n1,active: 5.01 µM,
Cc1sc(N)c(C(=O)c2cccc(C(F)(F)F)c2)c1C,"inconclusive: 31.6 µM [inhibitor, single point]",
CC1CC(C)CN(C(=O)Cn2c(SCC(=O)N3CCc4ccccc4C3)nc3ccccc32)C1 (stereo not given),"inconclusive: 35.5 µM [activator, single point]",
COc1ccc(C(=O)NC(=S)NNC(=O)c2ccc3ccccc3n2)cc1,inactive,
Fc1ccc(-n2nnc(-c3nccs3)n2)cc1,"inconclusive: 11.2 µM [inhibitor, single point]",
O=C(NCc1ccc2c(c1)OCO2)c1cc([N+](=O)[O-])ccc1N1CCCCC1,"inconclusive: 35.5 µM [activator, single point]",
COc1cccc2cc(C(C)N(CCCN3CCOCC3)C(=S)Nc3cc(C)ccc3C)oc12 (stereo not given),active: 11.2 µM,
Cc1ccc(Cl)cc1N1CCN(C(=O)COc2ccc(S(=O)(=O)NC(C)C)cc2)CC1,"inconclusive: 35.5 µM [inhibitor, single point]",
O=C(/C=C/c1ccco1)NCc1ccccn1,active: 4.47 µM,
Cc1ccc(CN(Cc2cccnc2)C(=S)Nc2cccc(Cl)c2C)cc1,active: 3.98 µM,
CCOc1ccc(NS(=O)(=O)c2cc3c(cc2C)N(C)CCO3)cc1,"inconclusive: 12.6 µM [activator, partial curve]",
